Assay results as given in article PMC4203356.
These are yes or no findings as the source states them, for the method shown. Binding seen in cells or lysates may run through a third protein. Some results given as binding are weak or reduced against the parent protein; the word gives no strength.

Protein sequences, listed by entry. Tags and fused reporters are not part of them. Lines headed by an entry give the natural chain unless they say otherwise; changes in a name come on top.
UniProt P14416: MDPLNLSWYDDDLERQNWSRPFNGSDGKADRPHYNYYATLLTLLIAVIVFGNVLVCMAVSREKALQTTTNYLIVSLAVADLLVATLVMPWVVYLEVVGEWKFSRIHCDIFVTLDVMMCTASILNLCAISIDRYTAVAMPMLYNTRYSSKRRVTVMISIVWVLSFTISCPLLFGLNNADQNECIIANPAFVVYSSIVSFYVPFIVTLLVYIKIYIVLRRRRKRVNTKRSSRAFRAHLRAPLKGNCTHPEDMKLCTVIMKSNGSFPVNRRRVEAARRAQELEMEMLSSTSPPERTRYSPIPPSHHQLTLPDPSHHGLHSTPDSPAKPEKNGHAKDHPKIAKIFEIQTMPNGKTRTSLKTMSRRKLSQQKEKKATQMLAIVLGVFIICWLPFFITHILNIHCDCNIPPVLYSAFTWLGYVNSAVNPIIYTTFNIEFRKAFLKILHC
UniProt Q86UW7: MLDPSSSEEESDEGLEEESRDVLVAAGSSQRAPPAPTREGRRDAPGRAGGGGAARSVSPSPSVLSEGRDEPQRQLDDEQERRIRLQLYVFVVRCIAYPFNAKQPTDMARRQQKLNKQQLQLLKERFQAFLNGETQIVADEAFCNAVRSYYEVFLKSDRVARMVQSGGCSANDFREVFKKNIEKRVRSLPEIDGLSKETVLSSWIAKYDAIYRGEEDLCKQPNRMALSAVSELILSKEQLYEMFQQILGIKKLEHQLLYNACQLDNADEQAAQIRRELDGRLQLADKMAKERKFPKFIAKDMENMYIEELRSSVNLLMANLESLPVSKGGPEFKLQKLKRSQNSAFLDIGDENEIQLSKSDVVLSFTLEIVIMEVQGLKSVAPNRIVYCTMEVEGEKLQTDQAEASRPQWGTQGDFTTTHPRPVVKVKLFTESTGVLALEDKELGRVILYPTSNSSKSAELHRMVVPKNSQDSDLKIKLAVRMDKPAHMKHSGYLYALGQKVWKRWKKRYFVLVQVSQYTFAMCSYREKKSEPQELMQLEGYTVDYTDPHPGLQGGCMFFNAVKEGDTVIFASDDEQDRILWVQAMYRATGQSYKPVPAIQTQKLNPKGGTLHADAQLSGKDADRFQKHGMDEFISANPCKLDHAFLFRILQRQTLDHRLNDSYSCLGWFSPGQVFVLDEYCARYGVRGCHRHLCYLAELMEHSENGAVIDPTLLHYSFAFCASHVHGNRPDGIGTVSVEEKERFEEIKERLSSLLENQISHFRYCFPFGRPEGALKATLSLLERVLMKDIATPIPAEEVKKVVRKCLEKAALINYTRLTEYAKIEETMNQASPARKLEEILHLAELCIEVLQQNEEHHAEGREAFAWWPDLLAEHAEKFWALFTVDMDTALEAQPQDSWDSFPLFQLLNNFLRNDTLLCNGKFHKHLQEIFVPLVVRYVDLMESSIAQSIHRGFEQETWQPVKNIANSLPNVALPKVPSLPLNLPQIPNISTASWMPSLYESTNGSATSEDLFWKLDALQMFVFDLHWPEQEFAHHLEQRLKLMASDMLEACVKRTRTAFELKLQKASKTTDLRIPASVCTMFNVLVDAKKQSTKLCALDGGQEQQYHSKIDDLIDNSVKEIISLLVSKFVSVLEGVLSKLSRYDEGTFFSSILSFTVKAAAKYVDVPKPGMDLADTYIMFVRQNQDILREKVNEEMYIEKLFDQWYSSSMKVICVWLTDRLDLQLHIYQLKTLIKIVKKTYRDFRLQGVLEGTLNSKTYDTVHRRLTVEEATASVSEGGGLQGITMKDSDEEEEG

Legend:
[1] = target: dopamine receptor type 2 (D2DR) (human (endogenous in SHSY5Y)) (UniProt P14416); assay: co-IP; lysates of SHSY5Y cells transfected with CADPS2-V5 constructs; immunoprecipitation with rabbit anti-D2DR antibody on Protein G-Sepharose at 4°C, western blot with mouse anti-V5; lysis in 50 mM HEPES, 1 mM EDTA, 10% glycerol, 1% Triton X-100, 150 mM NaCl
[2] = target: Ca2+-dependent activator protein for secretion 2 (CADPS2), wild type, C-terminal V5 tag (human) (UniProt Q86UW7); assay: co-IP; lysates of SHSY5Y cells transfected with CADPS2-V5 constructs; immunoprecipitation with mouse anti-V5 antibody on Protein G-Sepharose at 4°C, western blot with rabbit anti-D2DR; lysis in 50 mM HEPES, 1 mM EDTA, 10% glycerol, 1% Triton X-100, 150 mM NaCl

Substance | binding [1] | binding [2]
Ca2+-dependent activator protein for secretion 2 (CADPS2), wild type, C-terminal V5 tag (from UniProt Q86UW7-1 1-1296) | binds | 
dopamine receptor type 2 (D2DR) (from UniProt P14416 1-443) |  | binds
